No constants are given. Whether binding was seen depends on the method and setting. In cells and extracts the contact can be indirect. Here binding means that the protein was enriched with, or labelled near, the bait; the list need not be complete.
Target: T1, RASSF1A (human (endogenous in HeLa)) (UniProt Q9NS23)
T1 sequence: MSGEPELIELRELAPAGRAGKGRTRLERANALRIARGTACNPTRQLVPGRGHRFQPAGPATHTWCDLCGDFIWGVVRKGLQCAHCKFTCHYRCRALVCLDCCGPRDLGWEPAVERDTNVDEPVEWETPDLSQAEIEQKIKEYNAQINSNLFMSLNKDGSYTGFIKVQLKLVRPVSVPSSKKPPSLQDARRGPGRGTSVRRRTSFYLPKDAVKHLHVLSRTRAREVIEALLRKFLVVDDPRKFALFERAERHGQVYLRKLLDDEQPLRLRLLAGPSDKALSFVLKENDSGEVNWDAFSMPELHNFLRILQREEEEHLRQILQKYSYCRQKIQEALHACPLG
Assay: affinity purification with mass spectrometry; endogenous RASSF1A immunoprecipitated (10 μg anti-RASSF1A Atlas HPA040735 or rIgG, protein A Dynabeads, 10 mg lysate in 1% NP-40 buffer, 3 hours, 4°C) from control versus sorbitol-exposed HeLa cells; on-bead digest, LC-MS/MS

The chains behind the UniProt entries cited, without tags or fusion partners.
UniProt P21333: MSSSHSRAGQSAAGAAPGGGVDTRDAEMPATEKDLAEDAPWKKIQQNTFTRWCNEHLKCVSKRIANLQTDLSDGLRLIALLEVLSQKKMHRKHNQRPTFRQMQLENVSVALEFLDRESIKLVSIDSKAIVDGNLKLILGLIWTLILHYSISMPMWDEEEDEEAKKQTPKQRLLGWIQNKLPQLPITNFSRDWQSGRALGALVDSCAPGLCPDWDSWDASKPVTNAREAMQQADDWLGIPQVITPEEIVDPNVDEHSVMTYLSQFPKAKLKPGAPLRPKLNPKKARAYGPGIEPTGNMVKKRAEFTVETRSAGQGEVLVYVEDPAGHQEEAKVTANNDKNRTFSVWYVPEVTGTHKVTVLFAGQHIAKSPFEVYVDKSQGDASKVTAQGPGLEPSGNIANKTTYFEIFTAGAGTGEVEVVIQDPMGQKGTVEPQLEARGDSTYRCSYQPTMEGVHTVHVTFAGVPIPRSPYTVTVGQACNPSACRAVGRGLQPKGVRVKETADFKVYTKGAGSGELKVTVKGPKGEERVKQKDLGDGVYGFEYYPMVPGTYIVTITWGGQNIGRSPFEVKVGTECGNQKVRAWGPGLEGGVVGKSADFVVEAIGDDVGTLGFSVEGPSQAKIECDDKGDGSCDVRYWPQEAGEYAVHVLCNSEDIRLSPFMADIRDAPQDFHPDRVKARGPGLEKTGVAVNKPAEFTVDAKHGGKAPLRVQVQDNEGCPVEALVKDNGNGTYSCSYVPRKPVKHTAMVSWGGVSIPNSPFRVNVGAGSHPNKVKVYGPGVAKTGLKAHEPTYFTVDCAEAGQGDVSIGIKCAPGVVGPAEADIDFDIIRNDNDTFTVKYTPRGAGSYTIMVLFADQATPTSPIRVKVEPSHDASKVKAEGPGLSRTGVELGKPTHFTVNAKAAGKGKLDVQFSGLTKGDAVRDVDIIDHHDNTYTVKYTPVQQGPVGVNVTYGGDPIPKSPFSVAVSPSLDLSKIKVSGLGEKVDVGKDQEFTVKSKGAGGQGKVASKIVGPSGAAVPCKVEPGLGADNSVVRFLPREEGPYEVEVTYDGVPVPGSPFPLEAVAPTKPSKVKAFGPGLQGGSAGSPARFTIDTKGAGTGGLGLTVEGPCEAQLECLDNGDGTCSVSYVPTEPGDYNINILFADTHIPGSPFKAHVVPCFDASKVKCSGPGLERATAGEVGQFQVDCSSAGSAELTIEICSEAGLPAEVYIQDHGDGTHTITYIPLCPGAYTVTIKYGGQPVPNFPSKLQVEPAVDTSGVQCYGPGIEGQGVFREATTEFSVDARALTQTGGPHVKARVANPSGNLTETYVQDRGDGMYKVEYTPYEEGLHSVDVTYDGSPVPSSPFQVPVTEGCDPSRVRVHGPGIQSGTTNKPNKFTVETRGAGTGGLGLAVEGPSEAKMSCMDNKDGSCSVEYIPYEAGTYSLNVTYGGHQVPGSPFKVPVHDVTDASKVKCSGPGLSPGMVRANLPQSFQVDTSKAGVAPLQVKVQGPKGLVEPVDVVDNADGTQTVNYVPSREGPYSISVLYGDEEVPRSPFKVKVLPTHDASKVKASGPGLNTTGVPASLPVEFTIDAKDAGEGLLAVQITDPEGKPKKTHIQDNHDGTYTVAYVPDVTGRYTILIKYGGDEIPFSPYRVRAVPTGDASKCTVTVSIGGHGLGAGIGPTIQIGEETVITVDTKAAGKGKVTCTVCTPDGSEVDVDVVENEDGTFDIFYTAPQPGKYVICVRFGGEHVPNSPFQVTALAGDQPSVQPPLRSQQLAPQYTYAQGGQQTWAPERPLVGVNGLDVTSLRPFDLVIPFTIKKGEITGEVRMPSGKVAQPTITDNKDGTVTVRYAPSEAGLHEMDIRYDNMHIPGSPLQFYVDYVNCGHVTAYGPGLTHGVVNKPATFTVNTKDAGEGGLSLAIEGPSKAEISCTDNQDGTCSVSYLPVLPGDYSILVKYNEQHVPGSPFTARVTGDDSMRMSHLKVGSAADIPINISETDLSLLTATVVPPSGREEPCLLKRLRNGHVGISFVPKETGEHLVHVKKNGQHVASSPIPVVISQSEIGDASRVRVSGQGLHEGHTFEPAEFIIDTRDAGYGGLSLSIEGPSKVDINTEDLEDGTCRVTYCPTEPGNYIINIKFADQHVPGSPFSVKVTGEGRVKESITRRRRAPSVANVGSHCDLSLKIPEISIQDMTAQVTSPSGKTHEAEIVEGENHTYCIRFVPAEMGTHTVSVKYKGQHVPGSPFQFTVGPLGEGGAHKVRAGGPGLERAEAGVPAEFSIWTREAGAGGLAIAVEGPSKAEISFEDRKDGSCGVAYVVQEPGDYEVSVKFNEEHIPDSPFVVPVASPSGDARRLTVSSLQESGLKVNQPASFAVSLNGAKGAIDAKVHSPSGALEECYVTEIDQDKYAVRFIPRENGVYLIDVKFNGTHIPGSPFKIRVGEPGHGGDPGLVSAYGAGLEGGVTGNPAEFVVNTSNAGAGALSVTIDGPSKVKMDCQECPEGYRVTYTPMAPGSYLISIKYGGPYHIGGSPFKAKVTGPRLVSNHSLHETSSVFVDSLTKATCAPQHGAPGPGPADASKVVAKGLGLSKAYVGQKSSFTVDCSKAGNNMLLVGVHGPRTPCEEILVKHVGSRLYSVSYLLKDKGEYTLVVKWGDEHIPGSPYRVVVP
UniProt O43707: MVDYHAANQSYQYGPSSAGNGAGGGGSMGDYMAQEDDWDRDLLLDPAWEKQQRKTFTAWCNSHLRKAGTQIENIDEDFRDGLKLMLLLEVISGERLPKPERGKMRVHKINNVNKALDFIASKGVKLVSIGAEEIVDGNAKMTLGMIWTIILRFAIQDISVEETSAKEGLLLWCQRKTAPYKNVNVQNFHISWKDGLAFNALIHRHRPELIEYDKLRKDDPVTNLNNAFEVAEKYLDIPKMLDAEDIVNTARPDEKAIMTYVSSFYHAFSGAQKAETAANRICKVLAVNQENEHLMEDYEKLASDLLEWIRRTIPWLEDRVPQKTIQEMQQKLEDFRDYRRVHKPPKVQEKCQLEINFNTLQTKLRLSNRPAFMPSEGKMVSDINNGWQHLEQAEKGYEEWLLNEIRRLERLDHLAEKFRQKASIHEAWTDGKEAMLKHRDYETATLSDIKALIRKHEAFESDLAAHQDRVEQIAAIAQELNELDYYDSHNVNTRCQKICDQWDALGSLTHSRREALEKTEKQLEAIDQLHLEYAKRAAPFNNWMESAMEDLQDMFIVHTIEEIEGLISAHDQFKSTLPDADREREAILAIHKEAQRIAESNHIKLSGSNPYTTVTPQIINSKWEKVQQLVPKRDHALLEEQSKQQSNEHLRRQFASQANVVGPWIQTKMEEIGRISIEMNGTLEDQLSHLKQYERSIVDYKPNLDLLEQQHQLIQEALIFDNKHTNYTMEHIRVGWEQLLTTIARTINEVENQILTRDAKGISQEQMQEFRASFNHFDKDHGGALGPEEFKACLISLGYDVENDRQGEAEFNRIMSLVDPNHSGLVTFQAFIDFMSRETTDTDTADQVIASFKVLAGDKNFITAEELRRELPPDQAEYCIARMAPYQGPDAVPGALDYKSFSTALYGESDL

binding | Substance
binds | Filamin-A (from UniProt P21333 1-2647)
binds | α-actinin 4 (ACTN4) (from UniProt O43707 1-911)

— paper PMC11827640
